Literature values as cited in patent US10206916B2, “Cabozantinib salts and their use as anti-cancer agents” (Sandoz AG, priority 2015, dated 2019).
The name of at least one read-out is uncertain.

Conditions: cited from earlier work

Q: Which “permeability (BCS classification)” value does the source give for `COc1cc2nccc(Oc3ccc(NC(=O)C4(C(=O)Nc5ccc(F)cc5)CC4)cc3)c2cc1OC` [Cabozantinib, N-{4-[(6,7-dimethoxy-4-quinolinyl)oxy]phenyl}-N′-(4-fluorophenyl)-1,1-cyclopropanedicarboxamide] here?
A: The value was “high permeability”.
